The target of this experiment is T1, Untagged ErpQ_(19-343) (Borrelia burgdorferi strain B31) (UniProt Q9S035).
T1 sequence: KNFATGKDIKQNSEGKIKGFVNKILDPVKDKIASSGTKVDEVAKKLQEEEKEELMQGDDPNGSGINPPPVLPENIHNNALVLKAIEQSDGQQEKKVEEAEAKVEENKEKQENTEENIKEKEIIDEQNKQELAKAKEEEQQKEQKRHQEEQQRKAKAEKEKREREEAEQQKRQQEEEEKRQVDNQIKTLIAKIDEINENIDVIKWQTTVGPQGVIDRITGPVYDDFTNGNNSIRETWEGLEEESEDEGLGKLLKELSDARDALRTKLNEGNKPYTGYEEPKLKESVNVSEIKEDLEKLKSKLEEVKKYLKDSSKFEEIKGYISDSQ
The experiment in a line: SPR. A general note: Surface plasmon resonance follows binding to a sensor surface in real time, without labels.

These are yes or no findings as the source states them, for the method shown. Some binding calls cover weakened binding; strength is not graded here. Sequences can lack the tags named with a protein.

B1: C1s enzyme (activated form of human C1s) (enzyme, UniProt P09871 16-437; P09871 438-688)
chain 1: EPTMYGEILSPNYPQAYPSEVEKSWDIEVPEGYGIHLYFTHLDIELSENCAYDSVQIISGDTEEGRLCGQRSSNNPHSPIVEEFQVPYNKLQVIFKSDFSNEERFTGFAAYYVATDINECTDFVDVPCSHFCNNFIGGYFCSCPPEYFLHDDMKNCGVNCSGDVFTALIGEIASPNYPKPYPENSRCEYQIRLEKGFQVVVTLRREDFDVEAADSAGNCLDSLVFVAGDRQFGPYCGHGFPGPLNIETKSNALDIIFQTDLTGQKKGWKLRYHGDPMPCPKEDTPNSVWEPAKAKYVFRDVVQITCLDGFEVVEGRVGATSFYSTCQSNGKWSNSKLKCQPVDCGIPESIENGKVEDPESTLFGSVIRYTCEEPYYYMENGGGGEYHCAGNGSWVNEVLGPELPKCVPVCGVPREPFEEKQR
chain 2: IIGGSDADIKNFPWQVFFDNPWAGGALINEYWVLTAAHVVEGNREPTMYVGSTSVQTSRLAKSKMLTPEHVFIHPGWKLLEVPEGRTNFDNDIALVRLKDPVKMGPTVSPICLPGTSSDYNLMDGDLGLISGWGRTEKRDRAVRLKAARLPVAPLRKCKEVKVEKPTADAEAYVFTPNMICAGGEKGMDSCKGDSGGAFAVQDPNDKTKFYAAGLVSWGPQCGTYGLYTRVKNYVDWIMKTMQENSTPRED
With B1, the binding result was “binds”.

The values above are taken from article doi:10.1101/2021.09.23.461563.
